Measured values as given in patent US5646185A, “Tumor treatment method” (priority 1993, dated 1997).
The name of at least one read-out is uncertain.

Target: protein kinase C (PKC)
Assay: Protein kinase C (PKC) activation assay
Type: biochemical
Conditions: concentration used in the survival assay, stated to be close to the IC50; read-out: IC50 for enzyme activation (drug concentration close to it)

SMILES | IC50 [µM]
CCCCCCCCCCCCCC(=O)O[C@@H]1[C@@H](C)[C@@]2(O)[C@@H](C=C(CO)C[C@]3(O)C(=O)C(C)=C[C@@H]23)[C@@H]2C(C)(C)[C@]12OC(C)=O [TPA, 12-O-tetradecanoyl-phorbol-13-acetate] | ~1
C/C=C(/C)C(=O)O[C@H]1C(C)=C2[C@H]([C@@H]1OC(=O)CCCCCCC)[C@@](C)(OC(C)=O)C[C@H](OC(=O)CCC)[C@@]1(O)[C@H]2OC(=O)[C@@]1(C)O [thapsigargin] | ~2
